From publication PMC4735526 (Nature Communications, 2016)
Results are given in words; binding and its absence hold for the method and conditions named. Some binding calls cover weakened binding; strength is not graded here.

Target: T-STAR QUA1-KH domain (human) (UniProt O75525)
Experiment: crystal structure; T-STAR constructs in complex with short RNAs (protein/RNA 1:2), sitting drop vapour diffusion at 4 °C; protein in 10 mM Tris pH 7.0, 50 mM NaCl; both purified

binding: binds
B1: T-STAR QUA1-KH domain (domain or fragment, human)
chain: MEEKYLPELMAEKDSLDPSFTHALRLVNQEIEKFQKGEGKDEEKYIDVVINKNMKLGQKVLIPVKQFPKFNFVGKLLGPRGNSLKRLQEETLTKMSILGKGSMRDKAKEEELRKSGEAKYFHLNDDLHVLIEVFAPPAEAYARMGHALEEIKKFLIPDYN
notes: T-STAR/SLM2, human, QUA1 and KH domains with the linker between them; by the limits of the STAR (1-183) and KH (50-160) constructs they may be 1-160 (surmised); source: E. coli Rosetta BL21 DE3, purified (Ni-NTA, TEV cleavage, size-exclusion chromatography); not shown: His tag (inferred from the Ni-NTA purification)
